{
  "source": "patent US9446009B2",
  "about": "“Methods for treating conditions of the nail unit” (Hallux, Inc., priority 2004, dated 2016)",
  "origin": "cited, not measured here",
  "conditions_in_all_cases": "in vitro",
  "key": {"[1]": {"test_system": "Trichophyton mentagrophytes"}, "[2]": {"test_system": "Trichophyton tonsurans"}, "[3]": {"test_system": "Trichophyton verrucosum"}, "[4]": {"test_system": "Trichophyton rubrum"}},
  "data": [
    {"compound": "Clc1ccc(CO/N=C(\\Cn2ccnc2)c2ccc(Cl)cc2Cl)c(Cl)c1", "note": "[Oxiconazole]", "values": [
      {"measurement": "MIC Ranges", "setting": "[1]", "value": "0.06 to 0.5", "unit": "µg/mL"},
      {"measurement": "MIC Ranges", "setting": "[2]", "value": "≦0.0008-2 ^ mcg/ml"},
      {"measurement": "MIC Ranges", "setting": "[3]", "value": 4, "unit": "µg/mL"},
      {"measurement": "MIC Ranges", "setting": "[4]", "value": "<0.0008 to 2", "unit": "µg/mL"}
    ]},
    {"compound": "Clc1ccc(CSC(Cn2ccnc2)c2ccc(Cl)cc2Cl)cc1", "note": "(centres unmarked) [Sulconazole]", "values": [
      {"measurement": "MIC Ranges", "setting": "[1]", "value": "0.016 to 0.125", "unit": "µg/mL"},
      {"measurement": "MIC Ranges", "setting": "[2]", "value": "≦0.008-0.03 mcg/ml"},
      {"measurement": "MIC Ranges", "setting": "[3]", "value": 4, "unit": "µg/mL"},
      {"measurement": "MIC Ranges", "setting": "[4]", "value": "<0.008 to 4", "unit": "µg/mL"}
    ]}
  ]
}
